PubChem BioAssay AID1053208 – Peter MacCallum Cancer Centre | 2014
Here is a random part of about 17,000 reagents tested. 788 of all reagents (4.7%) count as active. 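Calls rest on z-score classes alone; an extra cut-off of viability at most 70% of control was not applied to them.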 Further read-outs or replicates are left out here. No sequences are given here.

- Purpose: 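Genes whose silencing cuts survival of bone tumour cells only with doxorubicin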 (primary screen)
- Cell system: mouse osteosarcoma cells, early-passage culture from an engineered mouse model of fibroblastic bone tumour
- Knock-down reagent: siRNA pool against mouse genes, 40 nM
- Duration: about 120 h (48 h before drug, then 72 h with drug)
- Challenge: doxorubicin 100 nM for 72 h, roughly 30-40% inhibitory dose
- Read-out: 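Viability read as ATP luminescence after 72 h of 100 nM doxorubicin or none, duplicate wells averaged, scaled to non-targeting siRNA, then expressed as robust z-scores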
- Direction: viability z-score with doxorubicin: higher = more viable cells under doxorubicin; viability z-score without drug: higher = more viable cells with knock-down alone
- Active means: 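a pool counts as active when its viability z-score with doxorubicin is -2 or below and its z-score without drug lies between -2 and 2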

Knock-down of Zfp846 (GeneID 244721) [SID152342897] gave: combined z-score class no change with or without drug; viability z-score with doxorubicin -1.46; viability z-score without drug -0.84; inactive.
Against Cfap20 (GeneID 14894) [SID152304291], the entry reads combined z-score class no change with or without drug; viability z-score with doxorubicin 0.22; viability z-score without drug 0.67; inactive.
Knock-down of Tas2r125 (GeneID 387352) [SID152300398] resulted in: combined z-score class no change with or without drug; viability z-score with doxorubicin 0.9; viability z-score without drug 1.18; inactive.
For Ppp2r2b (GeneID 72930) [SID152284495], the entry reads combined z-score class high cell count without drug only; viability z-score with doxorubicin 0; viability z-score without drug 2.19; inactive.
Abhd1 (GeneID 57742) [SID152290323] gave combined z-score class no change with or without drug; viability z-score with doxorubicin 0.45; viability z-score without drug 0.51; inactive.
Dhx32 (GeneID 101437) [SID152307843] scored combined z-score class no change with or without drug; viability z-score with doxorubicin 1.35; viability z-score without drug 0.34; inactive.
Wdcp (GeneID 238037) [SID152260675] showed combined z-score class no change with or without drug; viability z-score with doxorubicin 0.79; viability z-score without drug 0; inactive.
For Syt17 (GeneID 110058) [SID152316466], the values are combined z-score class no change with or without drug; viability z-score with doxorubicin 0.9; viability z-score without drug -0.17; inactive.
Dcaf10 (GeneID 242418) [SID152278913] gave combined z-score class no change with or without drug; viability z-score with doxorubicin 0.67; viability z-score without drug 0.51; inactive.
For Rap2a (GeneID 76108) [SID152302740], the entry reads combined z-score class no change with or without drug; viability z-score with doxorubicin -0.9; viability z-score without drug 1.18; inactive.
Depletion of Rnf122 (GeneID 68867) [SID152289972] came out at: combined z-score class low cell count with doxorubicin only; viability z-score with doxorubicin -3.15; viability z-score without drug 0.17; active.
Against Cdcp1 (GeneID 109332) [SID152304326], the entry reads combined z-score class no change with or without drug; viability z-score with doxorubicin -0.56; viability z-score without drug 0.51; inactive.
Or1e25 (GeneID 193053) [SID152334549] gave combined z-score class no change with or without drug; viability z-score with doxorubicin 0; viability z-score without drug -0.51; inactive.
Silencing of Pax7 (GeneID 18509) [SID152332535] came out at: combined z-score class no change with or without drug; viability z-score with doxorubicin -0.34; viability z-score without drug 0; inactive.
Cep131 (GeneID 12009) [SID152293535] scored combined z-score class no change with or without drug; viability z-score with doxorubicin -0.9; viability z-score without drug -0.17; inactive.
Against Ddb1 (GeneID 13194) [SID152300853], the values are combined z-score class high cell count with doxorubicin only; viability z-score with doxorubicin 2.59; viability z-score without drug -0.34; inactive.
Depletion of Spink10 (GeneID 328971) [SID152268966] gave: combined z-score class no change with or without drug; viability z-score with doxorubicin 0.34; viability z-score without drug 0.34; inactive.
Or8j3b (GeneID 404325) [SID152274501] scored combined z-score class no change with or without drug; viability z-score with doxorubicin 0.45; viability z-score without drug -1.18; inactive.
With knock-down of Cphx1 (GeneID 105594) [SID152295004], the screen gave combined z-score class no change with or without drug; viability z-score with doxorubicin 0.45; viability z-score without drug 0.51; inactive.
Silencing of Hmox2 (GeneID 15369) [SID152343002] gave: combined z-score class no change with or without drug; viability z-score with doxorubicin -1.24; viability z-score without drug -0.84; inactive.
Depletion of Vangl2 (GeneID 93840) [SID152281260] came out at: combined z-score class no change with or without drug; viability z-score with doxorubicin -0.22; viability z-score without drug -1.01; inactive.
4930519G04Rik (GeneID 67593) [SID152316962] scored combined z-score class no change with or without drug; viability z-score with doxorubicin -1.12; viability z-score without drug 0.51; inactive.
Knock-down of Rlbp1 (GeneID 19771) [SID152310862] came out at: combined z-score class high cell count without drug only; viability z-score with doxorubicin 1.12; viability z-score without drug 2.87; inactive.
Depletion of Cdkn2aip (GeneID 70925) [SID152300265] gave: combined z-score class no change with or without drug; viability z-score with doxorubicin -0.45; viability z-score without drug 1.01; inactive.
Ubac1 (GeneID 98766) [SID152313635] gave combined z-score class no change with or without drug; viability z-score with doxorubicin -0.11; viability z-score without drug -0.17; inactive.
For Tyw2 (GeneID 68260) [SID152309065], the values are combined z-score class no change with or without drug; viability z-score with doxorubicin 0.45; viability z-score without drug 0; inactive.
Ik (GeneID 24010) [SID152295814] scored combined z-score class low cell count with and without drug; viability z-score with doxorubicin -2.81; viability z-score without drug -2.87; inactive.
With knock-down of Tmem59l (GeneID 67937) [SID152289092], the screen gave combined z-score class no change with or without drug; viability z-score with doxorubicin -0.22; viability z-score without drug 0.51; inactive.

Entries above whose target name begins with R or r:
Rap2a (GeneID 76108) [SID152302740] | combined z-score class = no change with or without drug; viability z-score with doxorubicin = -0.9; viability z-score without drug = 1.18; Outcome = inactive
Rnf122 (GeneID 68867) [SID152289972] | combined z-score class = low cell count with doxorubicin only; viability z-score with doxorubicin = -3.15; viability z-score without drug = 0.17; Outcome = active
Rlbp1 (GeneID 19771) [SID152310862] | combined z-score class = high cell count without drug only; viability z-score with doxorubicin = 1.12; viability z-score without drug = 2.87; Outcome = inactive
